# Test results taken from PubChem BioAssay AID651640 (Broad Institute, 2012).
# The whole screen tested about 350,000 compounds, of which about 6,000 (1.7%) were called active. The inconclusive results got no clear call from the source; some entries with a clear call stand among them for comparison. Rule as the data show it: active = CPE inhibition above about 20% (passing the limit was not always enough); inconclusive = no clear call, values can overlap the other calls; tested in BHK-21 cells.
# Assay: protection of cells from dengue 2 killing – plate reader, single concentration, primary screen (AID 651640);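 also: 0% = median of neutral control wells and 100% = median of positive control wells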
# Details: DENV2-infected cells, cytopathic effect rescue, at 9.99 µM, hits give high values
row,Compound,CPE inhibition
1,C[C@H]1CN([C@@H](C)CO)C(=O)c2cc(NC(=O)Nc3ccc4c(c3)OCO4)ccc2O[C@H]1CN(C)C(=O)Nc1ccc(F)cc1,inconclusive: 71.9%
2,COc1ccc(CN(C)C[C@H]2Oc3ccc(NS(=O)(=O)c4ccc(F)cc4)cc3C(=O)N([C@H](C)CO)C[C@H]2C)cc1,inactive: 3.72%
3,O=S1(=O)CCO[C@H]2Cc3ccccc3[C@H]2N1Cc1ccc(Cl)cc1,active: 85.2%
4,CCC(=O)N1C[C@@H](O)COC[C@@H]2O[C@@H](CC(=O)NCc3ccc(Oc4ccccc4)cc3)CC[C@H]21,inconclusive: 36.8%
5,CNS(=O)(=O)c1cccc(C(=O)OCC(=O)N2c3ccccc3NC(=O)C2(C)C)c1,active: 28.3%
6,O=C(Cc1ccncc1)NCC[C@@H]1CC[C@@H](NC(=O)Nc2cccc(F)c2)[C@H](CO)O1,inconclusive: 20.6%
7,COc1cccc(C(=O)Nc2ccc3c(c2)C(=O)N(C)C[C@H](OC)[C@H](C)CN[C@H](C)CO3)c1,inconclusive: 22.1%
8,COC(=O)C1=C(C)NC(=O)/C1=C\N(C)C,inactive: -2.42%
9,CO[C@H]1CN(C)C(=O)c2ccc(NC(=O)c3ccccc3)cc2OC[C@H](C)NC[C@@H]1C,active: 39.2%
10,CCCNC(=O)N(C)C[C@H]1Oc2cc(-c3ccccc3F)ccc2S(=O)(=O)N([C@@H](C)CO)C[C@H]1C,inconclusive: 27.8%
11,CN(C)CC(=O)Nc1ccc2c(c1)[C@H]1C[C@@H](CC(=O)NC3CCCCC3)O[C@@H](CO)[C@H]1O2,inactive: -0.675%
12,C[C@@H]1CN([C@H](C)CO)C(=O)c2cccc(NC(=O)c3ccncc3)c2O[C@@H]1CN(C)C(=O)Nc1ccccc1,active: 54.2%
13,CC(=O)N1CCN=C1SCc1ccc(Br)cc1,inactive: 4.23%
14,CCOC(=O)N1CCN(S(=O)(=O)c2ccc(Cl)cc2)CC1,inconclusive: 37.8%
15,CCOc1cc(C(=O)N(CC)CC(=O)Nc2c(F)cccc2F)ccc1OCC(=O)N1CCCCC1,inconclusive: 20.8%
16,C[C@H]1CN([C@@H](C)CO)C(=O)c2cccc(NC(=O)Nc3ccc(C(F)(F)F)cc3)c2O[C@@H]1CN(C)Cc1ccc2c(c1)OCO2,inconclusive: 30.8%
17,CO[C@@H]1CN(C)C(=O)c2cc(NC(=O)C3CCCCC3)ccc2OC[C@@H](C)N(C(=O)c2ccccc2)C[C@H]1C,inconclusive: 22.5%
18,Nc1nc2c(ncn2[C@@H]2O[C@H](CNC(=O)[C@H](N)Cc3cncn3COCc3ccccc3)[C@@H](O)[C@H]2O)c(=O)[nH]1,inconclusive: 50.8%
19,COc1ccc(COC(=O)c2ccc(Cl)c(S(=O)(=O)N3CC(C)OC(C)C3)c2)cc1 (stereo not drawn),inconclusive: 26.4%
20,CCCC(=O)Nc1ccc2c(c1)OC[C@@H](C)N(Cc1ccccc1)C[C@@H](C)[C@@H](OC)CN(C)C2=O,inconclusive: 26.3%
21,CC1(c2ccc3c(c2)OCCCO3)NC(=O)N(CC(=O)Nc2cccc(C#N)c2)C1=O (stereo not drawn),inconclusive: 55.6%
22,C[C@H]1CN([C@@H](C)CO)C(=O)c2cc(C#Cc3ccccn3)cnc2O[C@@H]1CN(C)Cc1ccccc1,inconclusive: 76.4%

row,Compound,CPE inhibition
1,O=C(COC(=O)c1cccc(Cl)c1)NC(=O)NCc1ccccc1,inconclusive: 29.1%
2,CC(=O)Nc1scc(C)c1-c1nc2ccccc2s1,active: 50.3%
3,CC(=O)c1cccc(NC(=O)CN(C)S(=O)(=O)c2ccccc2)c1,inactive: 2.97%
4,C[C@H](CO)N1C[C@H](C)[C@H](CN(C)Cc2cccc(C(=O)O)c2)OCc2ccccc2-c2c(n(C)c3ccccc23)C1=O,inactive: 11.4%
5,CN1C(=O)c2cc(NC(=O)Nc3ccc(F)cc3)ccc2OC[C@H]2O[C@H](CC(=O)NC3CCC3)CC[C@H]21,inconclusive: 48.2%
6,Cc1cccc(NC(=O)c2cccc(OC(=S)N3CCOCC3)c2)c1C,inconclusive: 28.8%
7,CC(C)NC(=O)N(C)C[C@@H]1OCCCC[C@H](C)Oc2ccc(NC(=O)Nc3ccc(F)cc3)cc2C(=O)N([C@@H](C)CO)C[C@H]1C,active: 39.1%
8,Cc1ccc(S(=O)(=O)c2nnn3c2nc(N2CCOCC2)c2ccccc23)cc1C,active: 25%
9,CO/N=C/C=C1/N(C)c2ccccc2C1(C)C,inconclusive: 22.8%
10,O=C(CC(=O)Nc1ccccc1C(=O)O)NNC(=O)Cc1ccccc1,inconclusive: 21.1%
11,CN(C)C(=O)[C@@H]1[C@@H](CO)[C@@H]2Cn3c(ccc(-c4ccccc4F)c3=O)[C@@H]2N1C(=O)C1CC1,inconclusive: 24.5%
12,CN1c2ccc(-c3ccc(C#N)cc3)cc2[C@@H]2[C@@H](CCN2C(=O)NC2CCCCC2)[C@@H]1CO,inactive: -0.706%
13,O=C(CN1CCN(c2cccc(Cl)c2)CC1)Nc1ccc(S(=O)(=O)N2CCOCC2)cc1,inconclusive: 38.8%
14,O=C(C[C@@H]1C=C[C@@H](NC(=O)Nc2ccc(C(F)(F)F)cc2)[C@H](CO)O1)NCCN1CCCC1,inactive: 1.53%
15,C[C@@H]1CCCCO[C@H](CN(C)S(=O)(=O)c2cccs2)[C@@H](C)CN([C@H](C)CO)C(=O)c2cc(NC(=O)CCCCCC(=O)Nc3ccccc3N)ccc2O1,active: 23.9%
16,CCN(CC)C(=O)c1nc[nH]c1C(=O)N1CCc2ccccc2C1,inconclusive: 73.7%
17,Cc1ccc(S(=O)(=O)Nc2ccc3c(c2)C(=O)N([C@@H](C)CO)C[C@H](C)[C@@H](CN(C)C(=O)Nc2ccccc2)O3)cc1,inconclusive: 27.4%
18,Cc1cc(C)n(CCN(C)C(=O)CCc2nnc(-c3ccc4c(c3)OCO4)o2)n1,inconclusive: 25%
19,CO[C@H]1CN(C)C(=O)c2cc(NS(C)(=O)=O)ccc2OC[C@H](C)N(Cc2cncnc2)C[C@@H]1C,inconclusive: 20.8%
20,C[C@H](CO)N1C[C@H](C)[C@@H](CN(C)Cc2ccc(C(F)(F)F)cc2)Oc2ccc(NC(=O)C3CCCCC3)cc2CC1=O,active: 42%
21,O=C(Nc1ccc2c(c1)OCO2)N[C@@H]1CC[C@@H](CCNC(=O)C2CCCC2)O[C@@H]1CO,inactive: -10.2%

# Given with tabs: part of the list above.
row	Compound	CPE inhibition
14	CCOC(=O)N1CCN(S(=O)(=O)c2ccc(Cl)cc2)CC1	inconclusive: 37.8%
15	CCOc1cc(C(=O)N(CC)CC(=O)Nc2c(F)cccc2F)ccc1OCC(=O)N1CCCCC1	inconclusive: 20.8%
